## Library screen at single concentrations

The chains behind the UniProt entries cited, without tags or fusion partners. Residues count along the entry.
UniProt Q8IDJ8, 1-583: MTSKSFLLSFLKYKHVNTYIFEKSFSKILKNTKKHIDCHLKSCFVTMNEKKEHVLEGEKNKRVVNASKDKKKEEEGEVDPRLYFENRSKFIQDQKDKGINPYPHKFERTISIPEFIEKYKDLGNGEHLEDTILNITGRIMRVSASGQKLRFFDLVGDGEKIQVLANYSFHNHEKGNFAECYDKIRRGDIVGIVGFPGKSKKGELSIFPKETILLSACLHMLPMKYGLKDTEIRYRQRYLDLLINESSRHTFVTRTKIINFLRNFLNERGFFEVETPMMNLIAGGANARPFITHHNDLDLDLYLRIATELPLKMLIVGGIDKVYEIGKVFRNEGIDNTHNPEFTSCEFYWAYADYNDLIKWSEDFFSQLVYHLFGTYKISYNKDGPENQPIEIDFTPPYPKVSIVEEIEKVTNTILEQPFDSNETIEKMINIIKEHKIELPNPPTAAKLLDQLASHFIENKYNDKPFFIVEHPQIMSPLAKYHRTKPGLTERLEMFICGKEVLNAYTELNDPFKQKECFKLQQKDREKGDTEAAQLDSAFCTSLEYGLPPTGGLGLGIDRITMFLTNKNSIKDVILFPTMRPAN

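Enzyme assay of the cytosolic lysyl-tRNA synthetase in 384-well plates, read by luminescence. Target: Lysine-tRNA ligase, Plasmodium falciparum 3D7 (UniProt Q8IDJ8). Concentration: 30 µM. Higher reads as stronger inhibition, judged from the few compounds that gave an IC50. Of about 69,000 compounds tested this way, about 49 (0.071%) reached 50% or more in at least one test.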

Results are given as percent effect. The record does not define 0% and 100%; most values in the screen are far below 50% and negative numbers occur (in some assays of this library far below -100). This is an unselected part of the compounds tested.

* Cc1ccccc1NCc1nc2n(n1)CCCCC2 | 7.459%
* CSc1nccc(N2CCC(NCc3ccc4c(c3)OCO4)CC2)n1 | 4.45%
* Cc1nnc(N2CCc3cnc(C(C)C)nc3C2)c(C#N)c1C | 6.469%
* CC(C)c1nc(N2CCC(N3CCCC(O)C3)CC2)c2cnn(C)c2n1 (stereo not drawn) | 2.467%
* O=C(Cn1c(=O)nc2n1C(=O)N(c1ccccc1)C2)NC1CCCCC1 | 3.93%
* CCOc1ccc2ccccc2c1CNCC1CCS(=O)(=O)C1 (stereo not drawn) | 3.645%
* CN(C)C(=O)COC[C@@]12CCC[C@@H]1CN(C1CCC1)C2 | 7.679%
* CS(=O)(=O)CCNC(=O)N(Cc1ccoc1)C1CCCCC1 | 7.842%
* Cn1nnnc1SCc1cc2c(cc1Cl)OCO2 | 4.008%
* Cc1noc(C)c1CN(C)CC1CC(C2CCCCC2)=NO1 (stereo not drawn) | 6.64%
* Cc1cc(F)ccc1CN1CCCC2(C1)OCCO2 | 0.4937%
* COc1c(CNC2(c3noc(C)n3)CCC2)c(C(C)C)nn1C | 2.419%
* Cc1ccccc1CN(C)C(=O)CCc1nc(-c2nnc[nH]2)no1 | 0.7704%
* CC1CCN(C(=O)c2ccn(COc3ccccc3)n2)CC1 | 0.5066%
* CN(C)Cc1cnc(C2CN(C(=O)c3ccccc3Cl)CCO2)[nH]1 (stereo not drawn) | -0.3855%
* CC(NC(=O)c1cc(=O)n(C)c(=O)n1C)c1ccccc1-n1cccn1 (stereo not drawn) | -1.035%
* CC(C)N1CCC(N2CCN(C3CCCCC3)CC2CCO)CC1 (stereo not drawn) | 7.852%
* CN1Cc2nc[nH]c2C[C@H]1C(=O)NC1CCCCC1 | 8.672%
* Cc1nn(C)c2c(N3CCN(C)CC3)nc(C3CC3)nc12 | 6.394%
* O=C(NCCO)Nc1cccc(Cl)c1SC(F)F | -2.474%
* O=C(c1ccncn1)N1CCC[C@]2(C[C@H](OCC3CC3)CO2)C1 | -1.612%
* Cc1nc(CN2CCCC(NCc3ccsc3)C2)no1 (stereo not drawn) | 3.443%
* CCN1CCN(C(=O)c2ccc(OC)nn2)c2ccccc21 | -4%
* Cc1nn(C)c(N2CCCN(C)CC2)c1CNC(=O)C(C)(C)C | 10.39%
* O=C(C1CCCO1)N1CC[C@@H]2CN(Cc3ccccc3)S(=O)(=O)[C@@H]2CC1 (stereo partly drawn) | 8.69%
* COc1ccc(CNC(C)c2ccc(Cl)cc2)c(OC)c1OC (stereo not drawn) | 1.555%
* CCOCCC(=O)N1CCCCC1CCn1cccn1 (stereo not drawn) | -0.1922%
* Cc1cc(C)n(CC(=O)N2CCCC(c3cc4cccnc4[nH]3)C2)n1 (stereo not drawn) | 0.5722%
* COCCCN1CCC(N(Cc2noc(C)n2)C(C)=O)C1 (stereo not drawn) | -1.209%
* COc1ccc(OC)c(-n2cnnc2CCN)c1 | 2.704%
* O=C(c1cc(Cn2ccc3ccccc32)[nH]n1)N1CCCCC1CO (stereo not drawn) | 2.561%
* c1ccc(O[C@H]2CO[C@@]3(CCN(Cc4ccc5c(c4)OCO5)C3)C2)nc1 | 1.13%
* O=C1CN(CC[C@@H](O)c2ccccc2)CCN1c1ccccc1Cl | 2.886%
* CC(C)C(NC(N)=O)C(=O)N1CCN(c2ccccc2Cl)C(=O)C1 (stereo not drawn) | 7.532%
* CCc1cnc(CN(C)C2CCN(Cc3nnc(C4CC4)n3C)C2)o1 (stereo not drawn) | 4.31%

The values are deposited in ChEMBL (CHEMBL3988442, “University of Dundee, Small-Polar-MMV Screening Library” (2021)).